Measurements from publication PMC2225408.
No constants are given. Whether binding was seen depends on the method and setting. For part of these data: In cells and extracts the contact can be indirect. Some results given as binding are weak or reduced against the parent protein; the word gives no strength.

Amino acid sequences for entries named in this document (tags omitted).
UniProt Q15691: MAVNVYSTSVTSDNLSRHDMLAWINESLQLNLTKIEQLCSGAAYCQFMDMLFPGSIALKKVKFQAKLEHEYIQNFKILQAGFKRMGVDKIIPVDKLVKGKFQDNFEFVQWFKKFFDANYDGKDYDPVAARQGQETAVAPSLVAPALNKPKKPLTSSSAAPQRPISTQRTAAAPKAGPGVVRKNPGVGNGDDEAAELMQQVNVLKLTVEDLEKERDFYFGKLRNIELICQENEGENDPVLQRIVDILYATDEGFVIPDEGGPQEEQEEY
UniProt Q99627: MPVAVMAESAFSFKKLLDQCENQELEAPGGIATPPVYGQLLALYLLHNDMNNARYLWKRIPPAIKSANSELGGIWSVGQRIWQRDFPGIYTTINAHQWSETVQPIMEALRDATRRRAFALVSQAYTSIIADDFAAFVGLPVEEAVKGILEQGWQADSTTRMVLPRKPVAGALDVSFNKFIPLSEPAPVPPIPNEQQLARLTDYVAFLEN
UniProt Q92905: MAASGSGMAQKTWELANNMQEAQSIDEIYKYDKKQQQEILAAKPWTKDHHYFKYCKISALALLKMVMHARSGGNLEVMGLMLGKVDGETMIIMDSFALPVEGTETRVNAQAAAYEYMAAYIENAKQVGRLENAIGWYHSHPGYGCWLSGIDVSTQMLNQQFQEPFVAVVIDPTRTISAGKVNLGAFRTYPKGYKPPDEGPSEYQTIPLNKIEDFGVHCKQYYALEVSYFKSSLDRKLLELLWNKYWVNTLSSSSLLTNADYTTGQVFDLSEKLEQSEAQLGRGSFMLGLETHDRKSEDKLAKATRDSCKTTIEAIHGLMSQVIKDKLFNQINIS

Tests used:
[1] = biological target: recombinant GST-EB1 (microtubule-end-binding protein 1) (UniProt Q15691); test: pull-down; GST pull-down; purified CSN, recombinant GST-EB1 and increasing amounts of recombinant His-CSN5 incubated for 30 min at 37°C; precipitates probed by anti-EB1 and anti-CSN3 antibodies; both purified
[2] = biological target: CSN8, endogenous in HeLa cells (human (endogenous in HeLa)) (UniProt Q99627); test: co-sedimentation; glycerol gradient centrifugation of lysates from siGFP and siCSN5 HeLa cells; fractions 1 to 19 probed with anti-CSN5 and anti-CSN8
[3] = biological target: CSN8, endogenous in HeLa cells (human (endogenous in HeLa)) (UniProt Q99627); test: native gel or EMSA; non-denaturing gel electrophoresis (Phast-gel system) of lysates from siGFP and siCSN5 HeLa cells; same blot probed with anti-CSN5 and anti-CSN8

| Substance | binding [1] | binding [2] | binding [3] |
| --- | --- | --- | --- |
| recombinant His-CSN5 (from UniProt Q92905 1-334) | binds | – | – |
| CSN5, endogenous in HeLa cells (from UniProt Q92905 1-334) | – | binds | binds |
